Some of the results follow.
Legend:
Test in all cases: log2 fold change, soluble protein after heating vs DMSO (PISA); higher = thermal stabilisation; K562 lysate, 10 uM; active = over 0.2 and 3.5 SD of the protein, either way, in both replicates (recomputed)
erlotinib = compound: C#Cc1cccc(Nc2ncnc3cc(OCCOC)c(OCCOC)cc23)c1 [erlotinib]
Summary of the method: (§1)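 K562 pellets were dounce-homogenised in PBS pH 7.4 containing 1 mM MgCl2, and the crude extract, at 1 mg/mL protein, was exposed to 10 μM compound for 30 min. Aliquots were heated for 3 min across 48°C-58°C, pooled, brought to 0.5% NP-40 at 4°C and spun at 21,000xg for 90 min, with the supernatant taken as soluble protein. TMTpro 16plex LC-MS/MS with equalised channel sums quantified that protein. Values are log-two fold changes in thermal stability relative to solvent controls, taken from duplicates.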

Amino acid sequences for entries named in this document (tags omitted). A change or cut given only in a name is not applied to a line headed by its entry.
UniProt Q9BQ15: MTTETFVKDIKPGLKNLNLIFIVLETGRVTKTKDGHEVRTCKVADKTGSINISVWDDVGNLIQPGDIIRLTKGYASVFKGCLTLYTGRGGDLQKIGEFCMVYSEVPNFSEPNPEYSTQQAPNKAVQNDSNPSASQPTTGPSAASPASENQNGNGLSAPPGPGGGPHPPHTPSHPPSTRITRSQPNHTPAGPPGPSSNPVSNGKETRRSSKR
UniProt Q9Y6Q9, whole entry, looked up: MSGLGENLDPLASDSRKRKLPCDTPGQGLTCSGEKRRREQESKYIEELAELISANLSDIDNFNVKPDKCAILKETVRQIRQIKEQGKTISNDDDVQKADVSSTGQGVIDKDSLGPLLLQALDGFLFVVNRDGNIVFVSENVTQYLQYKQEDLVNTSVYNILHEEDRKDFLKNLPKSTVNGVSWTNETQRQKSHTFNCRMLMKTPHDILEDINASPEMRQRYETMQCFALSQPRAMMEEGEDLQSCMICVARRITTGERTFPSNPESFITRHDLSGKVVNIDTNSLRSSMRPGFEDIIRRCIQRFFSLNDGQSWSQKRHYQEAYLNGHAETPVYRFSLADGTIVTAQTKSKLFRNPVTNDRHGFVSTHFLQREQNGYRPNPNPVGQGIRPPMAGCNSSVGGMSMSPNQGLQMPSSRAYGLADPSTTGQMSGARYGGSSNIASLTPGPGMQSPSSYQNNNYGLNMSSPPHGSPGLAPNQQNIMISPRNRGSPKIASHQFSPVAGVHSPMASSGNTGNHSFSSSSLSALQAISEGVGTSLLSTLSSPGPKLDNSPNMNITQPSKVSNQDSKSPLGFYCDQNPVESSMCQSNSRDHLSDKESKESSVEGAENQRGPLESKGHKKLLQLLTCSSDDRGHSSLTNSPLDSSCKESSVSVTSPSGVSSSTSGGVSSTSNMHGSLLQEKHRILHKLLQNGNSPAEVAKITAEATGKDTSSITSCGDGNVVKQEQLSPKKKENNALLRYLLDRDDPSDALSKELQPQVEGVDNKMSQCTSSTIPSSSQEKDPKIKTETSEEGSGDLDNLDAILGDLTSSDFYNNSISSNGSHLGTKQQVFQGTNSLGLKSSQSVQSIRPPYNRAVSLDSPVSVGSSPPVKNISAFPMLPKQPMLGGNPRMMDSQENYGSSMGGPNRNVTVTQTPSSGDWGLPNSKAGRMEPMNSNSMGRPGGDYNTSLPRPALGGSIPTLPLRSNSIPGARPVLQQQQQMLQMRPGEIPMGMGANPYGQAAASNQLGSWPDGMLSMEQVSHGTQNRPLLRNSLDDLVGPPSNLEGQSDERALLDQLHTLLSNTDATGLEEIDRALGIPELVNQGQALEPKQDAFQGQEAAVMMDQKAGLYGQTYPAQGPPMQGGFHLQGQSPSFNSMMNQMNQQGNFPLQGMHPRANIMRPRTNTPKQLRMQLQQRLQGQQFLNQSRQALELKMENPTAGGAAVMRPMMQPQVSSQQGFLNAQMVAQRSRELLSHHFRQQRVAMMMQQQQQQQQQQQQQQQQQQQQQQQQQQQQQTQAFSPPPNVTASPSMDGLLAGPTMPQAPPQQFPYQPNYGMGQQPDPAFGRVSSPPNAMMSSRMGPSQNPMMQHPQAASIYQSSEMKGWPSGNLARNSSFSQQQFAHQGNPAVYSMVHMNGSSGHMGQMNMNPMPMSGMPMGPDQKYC
UniProt Q96RE7: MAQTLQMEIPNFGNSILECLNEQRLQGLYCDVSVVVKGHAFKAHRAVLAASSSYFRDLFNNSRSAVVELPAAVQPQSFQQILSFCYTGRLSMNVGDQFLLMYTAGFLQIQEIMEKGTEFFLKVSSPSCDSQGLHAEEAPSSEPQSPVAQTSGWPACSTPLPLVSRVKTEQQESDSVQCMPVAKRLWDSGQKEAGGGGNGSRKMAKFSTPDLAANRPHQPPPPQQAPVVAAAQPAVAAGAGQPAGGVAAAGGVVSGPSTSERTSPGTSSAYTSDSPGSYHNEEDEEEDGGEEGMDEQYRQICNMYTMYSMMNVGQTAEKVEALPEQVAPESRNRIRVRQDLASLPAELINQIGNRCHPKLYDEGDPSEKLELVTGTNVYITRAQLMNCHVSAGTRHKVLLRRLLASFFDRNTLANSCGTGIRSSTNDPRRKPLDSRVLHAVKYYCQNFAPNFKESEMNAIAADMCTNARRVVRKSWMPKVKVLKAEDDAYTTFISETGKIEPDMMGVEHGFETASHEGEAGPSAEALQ
UniProt O75113: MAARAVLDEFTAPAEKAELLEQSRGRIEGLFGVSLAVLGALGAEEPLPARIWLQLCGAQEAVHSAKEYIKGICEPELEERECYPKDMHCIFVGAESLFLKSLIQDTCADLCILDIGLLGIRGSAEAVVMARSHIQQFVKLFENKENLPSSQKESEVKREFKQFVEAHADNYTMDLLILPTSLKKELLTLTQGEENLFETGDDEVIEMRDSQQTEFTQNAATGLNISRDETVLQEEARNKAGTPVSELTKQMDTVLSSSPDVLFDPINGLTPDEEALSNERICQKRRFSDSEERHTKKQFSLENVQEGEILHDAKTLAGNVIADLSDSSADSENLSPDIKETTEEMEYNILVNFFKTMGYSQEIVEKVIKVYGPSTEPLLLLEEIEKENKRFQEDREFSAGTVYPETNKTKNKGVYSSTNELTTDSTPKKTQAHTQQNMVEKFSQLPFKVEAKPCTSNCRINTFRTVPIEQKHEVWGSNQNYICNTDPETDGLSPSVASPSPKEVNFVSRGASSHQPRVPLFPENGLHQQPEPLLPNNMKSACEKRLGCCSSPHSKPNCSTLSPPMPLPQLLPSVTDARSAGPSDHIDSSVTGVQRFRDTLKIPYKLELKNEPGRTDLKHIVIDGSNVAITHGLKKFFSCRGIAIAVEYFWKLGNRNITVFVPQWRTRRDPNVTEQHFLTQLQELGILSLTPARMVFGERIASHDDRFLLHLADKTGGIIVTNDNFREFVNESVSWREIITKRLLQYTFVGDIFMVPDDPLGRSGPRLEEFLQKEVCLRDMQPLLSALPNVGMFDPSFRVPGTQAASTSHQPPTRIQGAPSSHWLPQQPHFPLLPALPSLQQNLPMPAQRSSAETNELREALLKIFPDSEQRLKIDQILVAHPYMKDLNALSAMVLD
UniProt Q6XQN6: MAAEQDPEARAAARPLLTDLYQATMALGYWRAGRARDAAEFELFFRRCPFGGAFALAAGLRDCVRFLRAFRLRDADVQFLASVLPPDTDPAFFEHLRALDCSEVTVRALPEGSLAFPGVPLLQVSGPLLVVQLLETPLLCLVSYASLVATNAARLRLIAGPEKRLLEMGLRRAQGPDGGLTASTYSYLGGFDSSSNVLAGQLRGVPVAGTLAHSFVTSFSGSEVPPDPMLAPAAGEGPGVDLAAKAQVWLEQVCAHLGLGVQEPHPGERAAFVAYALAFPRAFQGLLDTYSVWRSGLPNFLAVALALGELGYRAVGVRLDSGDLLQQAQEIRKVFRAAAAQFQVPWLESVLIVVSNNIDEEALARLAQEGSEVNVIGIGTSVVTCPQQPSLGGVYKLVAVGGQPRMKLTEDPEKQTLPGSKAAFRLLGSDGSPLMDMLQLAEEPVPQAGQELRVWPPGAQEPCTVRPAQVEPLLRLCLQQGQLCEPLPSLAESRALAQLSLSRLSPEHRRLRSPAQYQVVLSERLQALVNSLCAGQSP
UniProt Q99836, whole entry, looked up: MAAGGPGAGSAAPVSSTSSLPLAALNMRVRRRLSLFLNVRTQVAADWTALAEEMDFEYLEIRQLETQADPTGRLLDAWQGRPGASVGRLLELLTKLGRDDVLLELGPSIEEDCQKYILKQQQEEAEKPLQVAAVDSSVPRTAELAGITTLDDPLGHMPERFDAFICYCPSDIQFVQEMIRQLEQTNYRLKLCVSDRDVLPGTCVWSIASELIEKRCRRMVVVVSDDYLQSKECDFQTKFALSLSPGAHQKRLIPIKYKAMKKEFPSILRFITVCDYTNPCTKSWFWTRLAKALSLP
UniProt Q9UJ70, whole entry, looked up: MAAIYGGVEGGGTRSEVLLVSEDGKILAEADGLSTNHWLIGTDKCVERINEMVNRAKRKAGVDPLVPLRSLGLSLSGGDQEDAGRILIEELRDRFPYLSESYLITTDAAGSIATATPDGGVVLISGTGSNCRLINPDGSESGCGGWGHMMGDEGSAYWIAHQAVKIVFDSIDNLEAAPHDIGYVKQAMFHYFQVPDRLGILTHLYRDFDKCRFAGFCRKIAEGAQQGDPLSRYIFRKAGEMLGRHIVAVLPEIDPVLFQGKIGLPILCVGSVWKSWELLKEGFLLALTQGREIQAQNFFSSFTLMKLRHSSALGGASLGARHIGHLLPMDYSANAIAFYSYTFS
UniProt Q9BRA0: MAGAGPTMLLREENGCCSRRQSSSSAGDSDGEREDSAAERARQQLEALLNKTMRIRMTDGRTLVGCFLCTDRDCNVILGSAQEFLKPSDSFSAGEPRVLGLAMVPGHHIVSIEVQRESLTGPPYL
UniProt Q9H0A0: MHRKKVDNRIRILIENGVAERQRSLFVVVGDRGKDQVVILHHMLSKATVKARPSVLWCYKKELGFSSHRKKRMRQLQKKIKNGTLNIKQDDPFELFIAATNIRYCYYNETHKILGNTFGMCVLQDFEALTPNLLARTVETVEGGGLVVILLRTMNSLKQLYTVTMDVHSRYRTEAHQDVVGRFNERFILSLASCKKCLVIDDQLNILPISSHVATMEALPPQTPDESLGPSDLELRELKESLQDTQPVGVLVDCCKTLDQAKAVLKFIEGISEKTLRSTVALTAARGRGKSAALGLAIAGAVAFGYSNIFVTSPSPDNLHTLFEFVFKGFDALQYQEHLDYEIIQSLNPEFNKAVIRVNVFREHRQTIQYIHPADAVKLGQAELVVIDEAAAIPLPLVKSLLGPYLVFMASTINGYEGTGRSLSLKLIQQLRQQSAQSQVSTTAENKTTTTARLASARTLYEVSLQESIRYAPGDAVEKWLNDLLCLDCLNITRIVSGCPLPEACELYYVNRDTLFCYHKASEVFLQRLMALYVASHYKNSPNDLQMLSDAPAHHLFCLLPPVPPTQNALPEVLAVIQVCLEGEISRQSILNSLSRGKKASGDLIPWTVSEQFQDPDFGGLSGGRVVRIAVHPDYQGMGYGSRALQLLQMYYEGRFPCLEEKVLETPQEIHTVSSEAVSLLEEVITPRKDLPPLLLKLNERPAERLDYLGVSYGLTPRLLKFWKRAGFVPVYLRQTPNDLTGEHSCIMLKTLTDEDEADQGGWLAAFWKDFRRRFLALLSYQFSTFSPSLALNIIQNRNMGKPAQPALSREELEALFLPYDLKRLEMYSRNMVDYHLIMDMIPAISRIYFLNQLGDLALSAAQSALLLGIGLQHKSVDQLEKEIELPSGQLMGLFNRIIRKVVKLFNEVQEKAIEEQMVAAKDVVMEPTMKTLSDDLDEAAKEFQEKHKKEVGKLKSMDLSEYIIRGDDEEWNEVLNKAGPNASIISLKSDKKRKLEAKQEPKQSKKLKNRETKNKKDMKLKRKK
UniProt O95544: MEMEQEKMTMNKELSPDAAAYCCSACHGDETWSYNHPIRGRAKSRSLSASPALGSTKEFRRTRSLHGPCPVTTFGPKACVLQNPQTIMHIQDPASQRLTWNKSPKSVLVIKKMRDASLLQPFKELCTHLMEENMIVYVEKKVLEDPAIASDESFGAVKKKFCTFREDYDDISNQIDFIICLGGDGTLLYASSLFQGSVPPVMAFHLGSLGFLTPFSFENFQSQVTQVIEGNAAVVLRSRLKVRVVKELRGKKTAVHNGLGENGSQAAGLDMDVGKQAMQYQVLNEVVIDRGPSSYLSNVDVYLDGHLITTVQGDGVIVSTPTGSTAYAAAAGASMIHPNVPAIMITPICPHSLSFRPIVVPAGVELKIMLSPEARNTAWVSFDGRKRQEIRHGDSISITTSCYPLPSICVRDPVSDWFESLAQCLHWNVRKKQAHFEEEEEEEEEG
UniProt Q9UBB6: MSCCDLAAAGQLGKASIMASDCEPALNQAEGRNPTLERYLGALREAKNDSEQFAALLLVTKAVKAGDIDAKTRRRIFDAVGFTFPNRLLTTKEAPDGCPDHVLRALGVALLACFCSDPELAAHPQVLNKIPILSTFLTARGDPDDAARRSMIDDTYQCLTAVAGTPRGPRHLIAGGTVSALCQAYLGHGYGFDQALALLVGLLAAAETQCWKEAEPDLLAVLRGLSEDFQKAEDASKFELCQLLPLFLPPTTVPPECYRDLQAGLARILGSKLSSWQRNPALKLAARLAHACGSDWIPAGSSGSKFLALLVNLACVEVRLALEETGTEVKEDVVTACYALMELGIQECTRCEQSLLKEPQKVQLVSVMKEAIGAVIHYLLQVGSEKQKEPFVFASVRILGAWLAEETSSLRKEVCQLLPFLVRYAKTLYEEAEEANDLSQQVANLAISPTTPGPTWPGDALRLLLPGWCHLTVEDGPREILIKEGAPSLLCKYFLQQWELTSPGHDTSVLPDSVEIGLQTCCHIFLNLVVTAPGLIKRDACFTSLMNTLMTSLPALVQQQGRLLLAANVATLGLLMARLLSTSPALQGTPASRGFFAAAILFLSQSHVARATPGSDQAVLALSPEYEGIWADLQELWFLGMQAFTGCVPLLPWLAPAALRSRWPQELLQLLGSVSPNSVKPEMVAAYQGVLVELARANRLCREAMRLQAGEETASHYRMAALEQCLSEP

[1] = compound: C/C(=N\NC(=O)C1=CC(=CC=C1)S(=O)(=O)N2CCOCC2)/C3=C(C=CC(=C3)Cl)O
Summary of the method: as §1

[2] = compound: C1=CC(=CC=C1C2=NC3=C(N2)C=C(C=C3)C(=O)N)OC4=CC=C(C=C4)Cl
Summary of the method: as §1

[3] = compound: C1=CC2=C(C=CC(=C2)/C=C\3/C(=O)NC(=NCC4=CC=CS4)S3)N=C1
Summary of the method: as §1

[4] = compound: C1=CC2=NC=CN=C2C=C1/C=C/3\C(=O)NC(=O)S3
Summary of the method: as §1

[5] = compound: C1=CC=C(C=C1)C2=NC(=C(N2)C3=CC=NC=C3)C4=CC(=C(C=C4)Cl)O
Summary of the method: as §1

[6] = compound: C1=CC=C2C(=C1)C3=NNC4=CC=CC(=C43)C2=O
Summary of the method: as §1

[7] = compound: C1CCN(C1)C(=O)NC2=CC=CC(=C2)NC3=NC=C(C(=N3)NCCC4=CN=CN4)Br
Summary of the method: as §1

[8] = compound: C1CN(CCC1(CC2=CC=C(C=C2)Cl)N)C3=NC=NC4=C3C=CN4
Summary of the method: as §1

IRAK-1-4 Inhibitor I = compound: C1COCCN1CCN2C3=CC=CC=C3N=C2NC(=O)C4=CC(=CC=C4)[N+](=O)[O-] [IRAK-1-4 Inhibitor I]
Summary of the method: as §1

ibrutinib = compound: C=CC(=O)N1CCC[C@@H](n2nc(-c3ccc(Oc4ccccc4)cc3)c3c(N)ncnc32)C1 [ibrutinib]
Summary of the method: as §1

[9] = compound: CC(=O)c1cnc2ccc(-c3cc(Cl)c(O)c(Cl)c3)nc2c1N[C@H]1CC[C@H](CN(C)C)CC1
Summary of the method: as §1

ralimetinib = compound: CC(C)(C)Cn1c(N)nc2ccc(-c3[nH]c(C(C)(C)C)nc3-c3ccc(F)cc3)nc21 [ralimetinib]
Summary of the method: as §1

[10] = compound: CC(C)(O)CC(=O)NCCn1ccc2ncnc(Nc3ccc(Oc4cccc(C(F)(F)F)c4)c(Cl)c3)c21
Summary of the method: as §1

[11] = compound: CC(C)C1=C2N=C(C=C(N2N=C1)NCC3=CC=CC=C3)NCCCCCCN
Summary of the method: as §1

[12] = compound: CC1=C(C(CC(=O)N1)C2=CC=C(C=C2)C(F)(F)F)C(=O)NC3=C(C=C4C(=C3)C=NN4)F
Summary of the method: as §1

[13] = compound: CC1=C(C2=C(C=C1)C(=O)C3=CC=CC=C3N2CCCN)C
Summary of the method: as §1

[14] = compound: CC1=C(C=C(C=C1)NC(=O)C2=CC(=CC=C2)C(C)(C)C#N)NC3=CC4=C(C=C3)N=CN(C4=O)C
Summary of the method: as §1

[15] = compound: CC1=C(C=C(C=C1)NC(=O)C2=CC(=CC=C2)N(C)C)NC(=O)C3=CC=C(C=C3)O
Summary of the method: as §1

[16] = compound: CC1=CC=C(C=C1)SC2=C3C=C(SC3=CN=C2)C(=O)N
Summary of the method: as §1

Row | Target | log2 fold change (erlotinib) | log2 fold change [1] | log2 fold change [2] | log2 fold change [3] | log2 fold change [4] | log2 fold change [5] | log2 fold change [6] | log2 fold change [7] | log2 fold change [8] | log2 fold change (IRAK-1-4 Inhibitor I) | log2 fold change (ibrutinib) | log2 fold change [9] | log2 fold change (ralimetinib) | log2 fold change [10] | log2 fold change [11] | log2 fold change [12] | log2 fold change [13] | log2 fold change [14] | log2 fold change [15] | log2 fold change [16]
1 | NABP2 (UniProt Q9BQ15) | inactive: -0.011 | inactive: -0.038 | inactive: 0.065 | inactive: -0.021 | inactive: -0.005 | inactive: 0.05 | inactive: 0.006 | inactive: 0.014 | inactive: 0.075 | inactive: -0.01 | inactive: -0.002 | inactive: -0.055 | inactive: 0 | inactive: -0.004 | inactive: -0.038 | inactive: -0.09 | inactive: -0.237 | inactive: 0.076 | inactive: 0.035 | inactive: -0.066
2 | NCOA3 (UniProt Q9Y6Q9) | inactive: 0.033 | inactive: 0.001 | inactive: -0.014 | inactive: -0.07 | inactive: -0.003 | inactive: -0.038 | inactive: -0.03 | inactive: -0.02 | inactive: 0.061 | inactive: 0.031 | inactive: 0.062 | inactive: 0.065 | inactive: 0.029 | inactive: -0.053 | inactive: 0.009 | inactive: -0.042 | inactive: -0.009 | inactive: -0.049 | inactive: 0.003 | inactive: -0.014
3 | MYOM1 (UniProt P52179) | inactive: -0.015 | inactive: 0.033 | inactive: -0.062 | inactive: -0.228 | inactive: -0.076 | inactive: -0.009 | inactive: 0.098 | inactive: -0.023 | inactive: 0.142 | active: 0.503 | inactive: -0.017 | inactive: 0.016 | inactive: 0.254 | inactive: 0.026 | inactive: -0.017 | inactive: 0.011 | inactive: -0.156 | inactive: 0.052 | inactive: -0.083 | inactive: -0.025
4 | NACC1 (UniProt Q96RE7) | inactive: -0.006 | inactive: 0.038 | inactive: 0.036 | inactive: -0.023 | inactive: -0.004 | inactive: 0.01 | inactive: -0.011 | inactive: 0.023 | inactive: -0.014 | inactive: 0.009 | inactive: -0.015 | inactive: -0.001 | inactive: 0.009 | inactive: -0.003 | inactive: -0.014 | inactive: 0.039 | inactive: -0.016 | inactive: -0.022 | inactive: 0.009 | inactive: -0.022
5 | MYL6 (UniProt P60660) | inactive: 0 | inactive: 0.013 | inactive: 0.001 | inactive: 0.044 | inactive: -0.05 | inactive: -0.015 | inactive: -0.003 | inactive: 0.044 | inactive: 0.023 | inactive: 0.02 | inactive: 0.067 | inactive: -0.045 | inactive: 0.008 | inactive: -0.045 | inactive: 0.007 | inactive: -0.043 | inactive: 0.029 | inactive: 0.038 | inactive: 0.021 | inactive: 0.006
6 | NAA10 (UniProt P41227) | inactive: 0.022 | inactive: 0.02 | inactive: 0.01 | inactive: -0.007 | inactive: 0.013 | inactive: -0.019 | inactive: -0.002 | inactive: 0.037 | inactive: 0.018 | inactive: 0.004 | inactive: 0.018 | inactive: 0.021 | inactive: -0.001 | inactive: 0.008 | inactive: 0.006 | inactive: 0.016 | inactive: 0.004 | inactive: -0.027 | inactive: -0.004 | inactive: 0.004
7 | N4BP1 (UniProt O75113) | inactive: -0.026 | inactive: -0.031 | inactive: -0.002 | inactive: 0.003 | inactive: -0.005 | inactive: -0.023 | inactive: 0 | inactive: -0.017 | inactive: -0.038 | inactive: 0.014 | inactive: 0.022 | inactive: -0.069 | inactive: 0.011 | inactive: -0.01 | inactive: 0.018 | inactive: 0.051 | inactive: 0.042 | inactive: 0.031 | inactive: 0.006 | inactive: -0.019
8 | NAPRT (UniProt Q6XQN6) | inactive: -0.064 | inactive: 0 | inactive: -0.01 | inactive: -0.007 | inactive: 0.006 | inactive: -0.021 | inactive: 0.012 | inactive: -0.004 | inactive: -0.039 | inactive: -0.019 | inactive: 0.073 | inactive: 0.012 | inactive: 0.026 | inactive: 0.042 | inactive: -0.04 | inactive: -0.026 | inactive: 0.005 | inactive: -0.01 | inactive: -0.011 | inactive: 0.004
9 | NADK2 (UniProt Q4G0N4) | inactive: 0.005 | inactive: -0.024 | inactive: 0.011 | inactive: 0.104 | inactive: -0.026 | inactive: -0.003 | inactive: -0.017 | inactive: -0.019 | inactive: 0.031 | inactive: 0.025 | inactive: -0.017 | inactive: -0.006 | inactive: 0.005 | inactive: -0.03 | inactive: -0.02 | inactive: -0.007 | inactive: 0.008 | inactive: 0.024 | inactive: 0.023 | inactive: 0.042
10 | MYD88 isoform 6 (UniProt Q99836) | inactive: -0.066 | inactive: 0.007 | inactive: -0.011 | inactive: -0.019 | inactive: -0.019 | inactive: -0.015 | inactive: -0.025 | inactive: 0.032 | inactive: -0.067 | inactive: 0.004 | inactive: 0.044 | inactive: 0.003 | inactive: 0.022 | inactive: 0.005 | inactive: 0.024 | inactive: 0.002 | inactive: -0.028 | inactive: -0.009 | inactive: -0.024 | inactive: -0.029
11 | MYL12B (UniProt O14950) | inactive: -0.027 | inactive: -0.081 | inactive: 0.008 | inactive: 0.013 | inactive: 0.019 | inactive: 0.021 | inactive: 0.002 | inactive: 0.012 | inactive: 0.031 | inactive: -0.004 | inactive: -0.004 | inactive: 0.014 | inactive: -0.001 | inactive: 0.005 | inactive: -0.02 | inactive: -0.007 | inactive: 0.005 | inactive: 0.036 | inactive: 0 | inactive: -0.005
12 | NAGK isoform 2 (UniProt Q9UJ70) | inactive: 0.003 | inactive: 0.041 | inactive: -0.012 | inactive: -0.053 | inactive: 0.013 | inactive: 0.026 | inactive: 0.007 | inactive: 0.007 | inactive: 0.028 | inactive: -0.018 | inactive: 0.02 | inactive: 0.076 | inactive: 0.012 | inactive: 0.016 | inactive: -0.036 | inactive: 0.03 | inactive: 0.023 | inactive: -0.041 | inactive: -0.025 | inactive: -0.021
13 | NAA38 isoform 2 (UniProt Q9BRA0) | inactive: 0.049 | inactive: -0.065 | inactive: 0.013 | inactive: 0.019 | inactive: -0.045 | inactive: -0.055 | inactive: 0.008 | inactive: -0.052 | inactive: 0.008 | inactive: 0.031 | inactive: 0.015 | inactive: -0.012 | inactive: -0.02 | inactive: -0.015 | inactive: -0.014 | inactive: 0.052 | inactive: -0.017 | inactive: -0.028 | inactive: 0.022 | inactive: -0.029
14 | NAT10 (UniProt Q9H0A0) | inactive: 0.016 | inactive: -0.038 | inactive: -0.025 | inactive: 0.011 | inactive: -0.041 | inactive: 0.025 | inactive: 0 | inactive: -0.014 | inactive: 0.025 | inactive: -0.016 | inactive: 0.025 | inactive: -0.011 | inactive: 0.026 | inactive: -0.037 | inactive: -0.007 | inactive: -0.006 | inactive: 0.013 | inactive: 0.015 | inactive: 0.018 | inactive: 0.041
15 | NADK (UniProt O95544) | inactive: 0.002 | inactive: -0.027 | inactive: 0 | inactive: -0.023 | inactive: 0.084 | inactive: 0.011 | inactive: -0.047 | inactive: -0.01 | inactive: -0.041 | inactive: -0.019 | inactive: -0.018 | inactive: -0.021 | inactive: 0.016 | inactive: -0.039 | inactive: -0.04 | inactive: 0.001 | inactive: -0.028 | inactive: 0.028 | inactive: 0.011 | inactive: 0.016
16 | NCDN isoform 3 (UniProt Q9UBB6) | inactive: 0.031 | inactive: -0.033 | inactive: 0.035 | inactive: -0.01 | inactive: 0.007 | inactive: -0.012 | inactive: -0.087 | inactive: -0.003 | inactive: -0.021 | inactive: -0.005 | inactive: -0.035 | inactive: 0.008 | inactive: 0.021 | inactive: -0.033 | inactive: -0.03 | inactive: -0.016 | inactive: -0.017 | inactive: -0.029 | inactive: 0.021 | inactive: -0.003

Single values from the list:
Under log2 fold change [1], NCOA3 (UniProt Q9Y6Q9) has inactive: 0.001
Under log2 fold change [5], NAT10 (UniProt Q9H0A0) has inactive: 0.025

From the supplement of paper PMC10849652
